This passage reports binding results from article PMC12628478.

Chains of the proteins cited; added tags and fusions are not shown.
UniProt Q13263: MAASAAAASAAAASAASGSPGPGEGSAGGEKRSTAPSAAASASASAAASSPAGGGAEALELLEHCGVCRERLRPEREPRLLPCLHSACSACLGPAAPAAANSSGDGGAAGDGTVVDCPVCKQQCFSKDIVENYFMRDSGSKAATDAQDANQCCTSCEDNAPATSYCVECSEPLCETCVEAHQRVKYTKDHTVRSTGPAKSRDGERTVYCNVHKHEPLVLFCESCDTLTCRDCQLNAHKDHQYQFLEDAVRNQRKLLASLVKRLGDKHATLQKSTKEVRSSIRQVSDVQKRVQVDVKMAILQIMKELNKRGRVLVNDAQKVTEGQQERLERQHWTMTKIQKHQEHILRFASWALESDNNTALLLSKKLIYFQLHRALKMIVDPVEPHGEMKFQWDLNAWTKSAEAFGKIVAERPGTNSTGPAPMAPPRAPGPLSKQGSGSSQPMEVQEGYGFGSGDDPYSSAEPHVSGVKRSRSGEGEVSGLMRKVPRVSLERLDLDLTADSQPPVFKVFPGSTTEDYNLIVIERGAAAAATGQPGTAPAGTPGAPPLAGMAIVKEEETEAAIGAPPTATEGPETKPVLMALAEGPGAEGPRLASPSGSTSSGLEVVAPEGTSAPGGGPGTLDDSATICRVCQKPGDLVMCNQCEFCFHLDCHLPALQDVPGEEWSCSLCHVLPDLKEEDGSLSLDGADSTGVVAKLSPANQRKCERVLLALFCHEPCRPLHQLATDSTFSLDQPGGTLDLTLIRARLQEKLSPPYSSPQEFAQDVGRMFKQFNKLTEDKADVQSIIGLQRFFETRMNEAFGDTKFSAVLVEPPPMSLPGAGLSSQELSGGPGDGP

Results are given in words; binding and its absence hold for the method and conditions named. Binding seen in cells or lysates may run through a third protein. Some results given as binding are weak or reduced against the parent protein; the word gives no strength.

The target in this test is T1, aldehyde dehydrogenase 4A1 (ALDH4A1) (human (endogenous in HUVECs)) (UniProt P30038).
T1 sequence: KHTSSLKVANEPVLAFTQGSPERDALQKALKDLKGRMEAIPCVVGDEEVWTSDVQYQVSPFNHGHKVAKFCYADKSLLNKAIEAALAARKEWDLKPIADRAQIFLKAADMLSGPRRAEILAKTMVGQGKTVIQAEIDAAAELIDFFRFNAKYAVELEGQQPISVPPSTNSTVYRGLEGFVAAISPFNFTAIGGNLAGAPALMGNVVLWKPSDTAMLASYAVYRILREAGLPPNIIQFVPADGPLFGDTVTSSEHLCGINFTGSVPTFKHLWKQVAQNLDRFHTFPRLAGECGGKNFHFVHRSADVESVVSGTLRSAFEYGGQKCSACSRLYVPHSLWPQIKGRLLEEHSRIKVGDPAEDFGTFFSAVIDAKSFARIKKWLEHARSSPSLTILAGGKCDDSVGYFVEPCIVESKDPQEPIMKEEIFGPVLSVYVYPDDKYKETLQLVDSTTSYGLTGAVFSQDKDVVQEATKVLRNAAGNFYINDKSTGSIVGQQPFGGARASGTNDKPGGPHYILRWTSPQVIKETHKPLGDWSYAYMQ
Put plainly: co-IP; HUVEC lysate; rProtein A/G MagPoly beads loaded with anti-ALDH4A1 or anti-Trim28 antibodies (IP/co-IP kit), eluate read by western blotting. (Immunoblotting shows a protein as a band on a membrane.)

Take “Tripartite motif-containing 28 (Trim28) (from UniProt Q13263 1-835)”: the binding result was “binds”.
